Data from patent publication US20120213763A1 (COUNCIL OF SCIENTIFIC AND INDUSTRIAL RESEARCH, published 2012).
Results are given in words; binding and its absence hold for the method and conditions named. Some results given as binding are weak or reduced against the parent protein; the word gives no strength.

Amino acid sequences for entries named in this document (tags omitted). Residues count along the entry.
UniProt P00747, residues 97-810: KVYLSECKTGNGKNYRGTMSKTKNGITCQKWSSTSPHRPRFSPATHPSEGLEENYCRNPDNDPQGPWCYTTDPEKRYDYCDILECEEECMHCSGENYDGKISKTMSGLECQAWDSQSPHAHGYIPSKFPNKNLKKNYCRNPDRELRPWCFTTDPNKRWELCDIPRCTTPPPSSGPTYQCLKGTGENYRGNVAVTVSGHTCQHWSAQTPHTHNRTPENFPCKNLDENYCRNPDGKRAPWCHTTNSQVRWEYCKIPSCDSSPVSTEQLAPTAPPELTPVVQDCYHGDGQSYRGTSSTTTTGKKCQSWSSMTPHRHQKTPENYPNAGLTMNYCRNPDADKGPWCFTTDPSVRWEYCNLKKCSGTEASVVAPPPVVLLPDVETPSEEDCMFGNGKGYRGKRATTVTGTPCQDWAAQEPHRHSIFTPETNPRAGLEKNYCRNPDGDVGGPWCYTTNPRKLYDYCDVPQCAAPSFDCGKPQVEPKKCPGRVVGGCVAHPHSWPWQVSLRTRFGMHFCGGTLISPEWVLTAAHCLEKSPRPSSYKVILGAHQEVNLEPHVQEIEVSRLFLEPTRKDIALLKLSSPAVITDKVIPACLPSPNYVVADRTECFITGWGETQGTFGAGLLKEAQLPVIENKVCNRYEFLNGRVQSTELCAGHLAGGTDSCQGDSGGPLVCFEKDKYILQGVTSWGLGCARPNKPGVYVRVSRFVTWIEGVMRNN

Biological target: human plasmin (human) (UniProt P00747)
Test: preformed equimolar complex with plasmin, used as activator in the HPG activation assay

For “native streptokinase nSK (1-414) ATCC 12449 (SEQ ID NO 1) (from UniProt P00779 27-440)”, the binding was “binds”.
